Measurements: paper PMC9578791
No constants are given. Whether binding was seen depends on the method and setting. In cells and extracts the contact can be indirect. Some entries that bind do so weakly or less than the wild type.

By UniProt entry, the sequences of proteins in these tests, tags left out.
UniProt P21333: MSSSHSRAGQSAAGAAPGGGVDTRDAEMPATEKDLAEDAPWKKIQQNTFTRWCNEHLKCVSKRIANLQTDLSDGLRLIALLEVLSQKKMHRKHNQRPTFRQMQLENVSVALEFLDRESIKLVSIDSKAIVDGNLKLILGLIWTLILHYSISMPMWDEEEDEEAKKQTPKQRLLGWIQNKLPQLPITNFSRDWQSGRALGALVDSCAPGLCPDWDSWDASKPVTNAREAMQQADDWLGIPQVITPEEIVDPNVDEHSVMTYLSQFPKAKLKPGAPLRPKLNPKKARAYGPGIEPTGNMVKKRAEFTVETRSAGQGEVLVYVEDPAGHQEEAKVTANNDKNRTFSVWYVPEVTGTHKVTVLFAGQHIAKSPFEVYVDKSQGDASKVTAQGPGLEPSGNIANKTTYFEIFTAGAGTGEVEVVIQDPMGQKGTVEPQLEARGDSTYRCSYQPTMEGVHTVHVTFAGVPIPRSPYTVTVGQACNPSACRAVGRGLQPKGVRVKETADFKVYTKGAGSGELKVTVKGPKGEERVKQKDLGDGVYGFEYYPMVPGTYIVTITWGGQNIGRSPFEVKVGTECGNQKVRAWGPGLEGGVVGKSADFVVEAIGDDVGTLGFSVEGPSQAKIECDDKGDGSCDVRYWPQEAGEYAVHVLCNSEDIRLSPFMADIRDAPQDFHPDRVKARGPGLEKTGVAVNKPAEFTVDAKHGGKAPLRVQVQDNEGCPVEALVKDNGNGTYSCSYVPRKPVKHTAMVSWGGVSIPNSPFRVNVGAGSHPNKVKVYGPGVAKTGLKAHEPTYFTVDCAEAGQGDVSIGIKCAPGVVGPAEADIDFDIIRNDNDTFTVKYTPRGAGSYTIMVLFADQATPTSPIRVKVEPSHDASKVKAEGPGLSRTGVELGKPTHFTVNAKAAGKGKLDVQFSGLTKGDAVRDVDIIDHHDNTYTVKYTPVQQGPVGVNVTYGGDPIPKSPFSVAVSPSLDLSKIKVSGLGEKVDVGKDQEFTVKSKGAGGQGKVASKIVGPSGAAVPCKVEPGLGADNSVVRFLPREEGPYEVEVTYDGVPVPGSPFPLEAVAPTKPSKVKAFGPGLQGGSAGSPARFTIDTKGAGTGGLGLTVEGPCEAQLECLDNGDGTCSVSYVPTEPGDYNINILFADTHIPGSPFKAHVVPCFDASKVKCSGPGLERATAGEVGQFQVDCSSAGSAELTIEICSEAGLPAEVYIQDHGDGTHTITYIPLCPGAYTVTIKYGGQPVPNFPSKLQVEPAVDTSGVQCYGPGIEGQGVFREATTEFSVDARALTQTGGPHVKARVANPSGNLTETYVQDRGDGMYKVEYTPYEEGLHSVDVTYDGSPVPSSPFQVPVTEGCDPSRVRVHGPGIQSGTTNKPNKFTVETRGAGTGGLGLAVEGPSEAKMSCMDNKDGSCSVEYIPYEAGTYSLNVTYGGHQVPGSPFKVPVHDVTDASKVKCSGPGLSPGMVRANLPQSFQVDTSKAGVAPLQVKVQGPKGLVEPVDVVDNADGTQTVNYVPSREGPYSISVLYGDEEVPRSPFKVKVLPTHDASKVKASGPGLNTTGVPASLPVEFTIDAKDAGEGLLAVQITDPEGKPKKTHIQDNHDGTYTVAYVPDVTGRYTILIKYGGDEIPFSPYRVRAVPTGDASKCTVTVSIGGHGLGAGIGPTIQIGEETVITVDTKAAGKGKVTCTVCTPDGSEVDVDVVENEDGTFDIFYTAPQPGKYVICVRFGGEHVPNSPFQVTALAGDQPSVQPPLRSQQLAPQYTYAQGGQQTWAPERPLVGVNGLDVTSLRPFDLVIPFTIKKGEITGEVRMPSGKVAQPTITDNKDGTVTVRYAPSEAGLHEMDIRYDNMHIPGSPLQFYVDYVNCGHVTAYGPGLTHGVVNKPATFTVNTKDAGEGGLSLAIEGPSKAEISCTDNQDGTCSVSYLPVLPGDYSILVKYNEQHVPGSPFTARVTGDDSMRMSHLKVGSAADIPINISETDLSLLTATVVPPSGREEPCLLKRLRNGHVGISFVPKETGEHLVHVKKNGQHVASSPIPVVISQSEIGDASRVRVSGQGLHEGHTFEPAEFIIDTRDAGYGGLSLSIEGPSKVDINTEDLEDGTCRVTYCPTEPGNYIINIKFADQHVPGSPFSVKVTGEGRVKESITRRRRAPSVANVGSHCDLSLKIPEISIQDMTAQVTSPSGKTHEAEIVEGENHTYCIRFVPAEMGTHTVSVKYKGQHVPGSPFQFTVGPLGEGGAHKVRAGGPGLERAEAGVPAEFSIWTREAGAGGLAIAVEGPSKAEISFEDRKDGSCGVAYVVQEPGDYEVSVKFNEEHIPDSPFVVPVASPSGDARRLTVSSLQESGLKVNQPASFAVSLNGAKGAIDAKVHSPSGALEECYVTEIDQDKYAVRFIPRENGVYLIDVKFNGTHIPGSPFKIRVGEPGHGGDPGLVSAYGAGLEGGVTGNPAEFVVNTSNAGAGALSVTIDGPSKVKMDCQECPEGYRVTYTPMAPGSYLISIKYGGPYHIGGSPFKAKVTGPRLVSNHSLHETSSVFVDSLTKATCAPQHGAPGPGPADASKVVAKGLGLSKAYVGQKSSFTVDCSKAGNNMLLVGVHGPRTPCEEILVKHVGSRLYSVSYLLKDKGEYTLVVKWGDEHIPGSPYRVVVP

Target: T1, thyroid hormone receptor interactor 13 (TRIP13) (UniProt Q15645)
T1 sequence: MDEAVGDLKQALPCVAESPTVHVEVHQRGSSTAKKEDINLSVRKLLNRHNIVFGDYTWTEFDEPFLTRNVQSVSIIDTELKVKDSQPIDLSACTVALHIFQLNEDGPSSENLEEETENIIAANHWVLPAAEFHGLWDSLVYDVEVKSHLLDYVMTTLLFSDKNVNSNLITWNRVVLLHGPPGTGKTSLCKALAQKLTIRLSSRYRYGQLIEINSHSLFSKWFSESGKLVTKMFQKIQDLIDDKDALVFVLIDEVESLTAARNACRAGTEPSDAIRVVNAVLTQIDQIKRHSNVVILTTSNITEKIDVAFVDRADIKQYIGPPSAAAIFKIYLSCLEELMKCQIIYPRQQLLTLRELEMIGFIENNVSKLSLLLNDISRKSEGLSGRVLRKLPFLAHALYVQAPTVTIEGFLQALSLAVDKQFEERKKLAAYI
Test: co-IP; melanoma cell lysate in IP lysis solution; primary antibody and protein A/G beads, 4°C for 4 h; western blot

binding: binds
Substance: filamin A (FLNA) (from UniProt P21333 1-2647)
